# Test results published in publication PMC13598120.
# Protein sequences, listed by entry. Tags and fused reporters are not part of them.
# UniProt P54132: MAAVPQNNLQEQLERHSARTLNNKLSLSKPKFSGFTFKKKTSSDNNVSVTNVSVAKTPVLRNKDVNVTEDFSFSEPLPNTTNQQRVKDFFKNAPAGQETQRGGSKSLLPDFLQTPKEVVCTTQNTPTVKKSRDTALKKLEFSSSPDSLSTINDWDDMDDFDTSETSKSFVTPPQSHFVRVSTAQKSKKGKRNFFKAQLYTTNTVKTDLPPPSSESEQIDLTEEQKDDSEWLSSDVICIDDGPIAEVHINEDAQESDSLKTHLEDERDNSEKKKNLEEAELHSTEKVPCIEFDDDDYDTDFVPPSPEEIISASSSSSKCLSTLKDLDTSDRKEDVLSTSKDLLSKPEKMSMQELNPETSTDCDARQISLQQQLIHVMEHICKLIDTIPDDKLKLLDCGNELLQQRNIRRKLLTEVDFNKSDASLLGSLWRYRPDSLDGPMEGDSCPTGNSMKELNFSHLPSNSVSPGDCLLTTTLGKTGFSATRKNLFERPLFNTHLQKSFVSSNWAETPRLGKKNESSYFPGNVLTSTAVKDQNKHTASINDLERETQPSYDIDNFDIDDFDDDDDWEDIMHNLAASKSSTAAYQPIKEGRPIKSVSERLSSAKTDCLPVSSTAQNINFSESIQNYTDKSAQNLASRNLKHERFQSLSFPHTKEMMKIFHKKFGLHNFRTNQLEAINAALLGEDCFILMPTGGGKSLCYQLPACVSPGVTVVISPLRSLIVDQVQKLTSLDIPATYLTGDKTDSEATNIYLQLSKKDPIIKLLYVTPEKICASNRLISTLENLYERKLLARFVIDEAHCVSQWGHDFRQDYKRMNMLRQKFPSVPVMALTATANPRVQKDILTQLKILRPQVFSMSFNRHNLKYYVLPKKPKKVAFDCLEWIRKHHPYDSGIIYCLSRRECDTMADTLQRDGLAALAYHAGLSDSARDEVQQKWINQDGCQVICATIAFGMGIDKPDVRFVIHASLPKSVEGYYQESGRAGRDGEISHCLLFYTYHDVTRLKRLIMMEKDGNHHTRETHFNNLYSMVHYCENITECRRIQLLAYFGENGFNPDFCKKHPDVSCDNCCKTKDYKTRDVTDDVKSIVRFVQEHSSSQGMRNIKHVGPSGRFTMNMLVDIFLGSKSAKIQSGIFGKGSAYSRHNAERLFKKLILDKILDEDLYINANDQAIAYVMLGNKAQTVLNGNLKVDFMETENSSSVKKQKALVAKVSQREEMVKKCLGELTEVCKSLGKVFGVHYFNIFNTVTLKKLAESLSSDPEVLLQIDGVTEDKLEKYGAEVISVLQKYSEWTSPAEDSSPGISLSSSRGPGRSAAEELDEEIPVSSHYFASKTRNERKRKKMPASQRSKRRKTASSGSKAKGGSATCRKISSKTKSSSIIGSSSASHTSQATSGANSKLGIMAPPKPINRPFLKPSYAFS
# UniProt Q9H4L4: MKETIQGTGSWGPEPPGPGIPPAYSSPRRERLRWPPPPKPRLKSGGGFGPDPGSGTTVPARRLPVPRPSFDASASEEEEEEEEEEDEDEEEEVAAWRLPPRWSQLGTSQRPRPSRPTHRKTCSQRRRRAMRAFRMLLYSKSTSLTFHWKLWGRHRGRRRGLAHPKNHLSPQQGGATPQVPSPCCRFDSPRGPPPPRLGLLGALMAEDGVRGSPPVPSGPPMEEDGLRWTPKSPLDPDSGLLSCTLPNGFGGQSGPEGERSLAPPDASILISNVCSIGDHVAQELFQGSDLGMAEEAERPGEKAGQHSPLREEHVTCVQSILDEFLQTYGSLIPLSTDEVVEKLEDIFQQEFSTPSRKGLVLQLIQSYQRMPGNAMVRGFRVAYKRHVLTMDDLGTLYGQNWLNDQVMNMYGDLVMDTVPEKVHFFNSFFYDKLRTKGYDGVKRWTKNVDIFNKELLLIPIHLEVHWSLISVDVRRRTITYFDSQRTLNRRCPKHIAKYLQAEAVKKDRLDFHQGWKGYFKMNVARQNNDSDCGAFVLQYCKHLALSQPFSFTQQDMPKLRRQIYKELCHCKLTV
# Target: T1, Flag-tagged GNL3 (Flag-GNL3), wild type (human) (UniProt Q9BVP2)
# T1 sequence: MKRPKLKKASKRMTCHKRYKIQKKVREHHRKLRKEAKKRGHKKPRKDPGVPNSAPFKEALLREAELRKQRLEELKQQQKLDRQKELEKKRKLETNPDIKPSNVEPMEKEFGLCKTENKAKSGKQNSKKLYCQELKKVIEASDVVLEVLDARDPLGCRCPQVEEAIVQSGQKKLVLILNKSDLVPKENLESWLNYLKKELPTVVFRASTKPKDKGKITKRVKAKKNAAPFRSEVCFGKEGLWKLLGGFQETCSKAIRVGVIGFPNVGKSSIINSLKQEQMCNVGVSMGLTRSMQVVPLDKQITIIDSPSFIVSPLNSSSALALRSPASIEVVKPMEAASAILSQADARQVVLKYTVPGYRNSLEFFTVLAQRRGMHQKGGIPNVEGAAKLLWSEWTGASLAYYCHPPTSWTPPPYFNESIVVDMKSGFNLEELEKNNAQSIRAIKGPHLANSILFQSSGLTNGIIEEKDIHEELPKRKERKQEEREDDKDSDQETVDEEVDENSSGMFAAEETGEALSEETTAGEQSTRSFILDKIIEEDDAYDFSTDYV
# Experiment: affinity purification with mass spectrometry; 293 cells stably expressing control or Flag-GNL3; NP40 lysis buffer; anti-Flag (M2) agarose, 4 C, 4 h; elution with Flag peptide; LC-MS/MS
row,binding,Substance
1,binds,"BLM, endogenous (from UniProt P54132 1-1417)"
2,binds,"SENP3, endogenous (from UniProt Q9H4L4 1-574) (enzyme)"

# Results are given in words; binding and its absence hold for the method and conditions named. Binding seen in cells or lysates may run through a third protein. These calls come from enrichment with a bait or labelling near it, and not all partners need be listed. Tags and fused reporters may be left off the sequences shown.
